Experimental data as given in PMC11233601.

Biological target: T1, GST-p107-R1R2 (human) (UniProt P28749)
T1 sequence: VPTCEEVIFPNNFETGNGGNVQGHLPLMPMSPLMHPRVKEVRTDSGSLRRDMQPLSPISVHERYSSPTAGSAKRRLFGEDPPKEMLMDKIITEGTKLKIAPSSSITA
Experiment: pull-down; competition: purified PP2A/B55α holoenzymes preincubated with increasing nM HA-Fam122a 30 min at 37 °C, then with µM GST-p107 R1R2 on beads 3 h or overnight at 4 °C; blots for B55α and GST; both purified

binding: binds
Substance: purified PP2A/B55α holoenzyme (complex)

These are yes or no findings as the source states them, for the method shown. Binding can be weak; no strength is given. Sequences can lack the tags named with a protein.
